{"sequences": {"note": "Protein sequences, listed by entry. Tags and fused reporters are not part of them. Residues count along the entry.", "UniProt C0LGT6, residues 25-1031": "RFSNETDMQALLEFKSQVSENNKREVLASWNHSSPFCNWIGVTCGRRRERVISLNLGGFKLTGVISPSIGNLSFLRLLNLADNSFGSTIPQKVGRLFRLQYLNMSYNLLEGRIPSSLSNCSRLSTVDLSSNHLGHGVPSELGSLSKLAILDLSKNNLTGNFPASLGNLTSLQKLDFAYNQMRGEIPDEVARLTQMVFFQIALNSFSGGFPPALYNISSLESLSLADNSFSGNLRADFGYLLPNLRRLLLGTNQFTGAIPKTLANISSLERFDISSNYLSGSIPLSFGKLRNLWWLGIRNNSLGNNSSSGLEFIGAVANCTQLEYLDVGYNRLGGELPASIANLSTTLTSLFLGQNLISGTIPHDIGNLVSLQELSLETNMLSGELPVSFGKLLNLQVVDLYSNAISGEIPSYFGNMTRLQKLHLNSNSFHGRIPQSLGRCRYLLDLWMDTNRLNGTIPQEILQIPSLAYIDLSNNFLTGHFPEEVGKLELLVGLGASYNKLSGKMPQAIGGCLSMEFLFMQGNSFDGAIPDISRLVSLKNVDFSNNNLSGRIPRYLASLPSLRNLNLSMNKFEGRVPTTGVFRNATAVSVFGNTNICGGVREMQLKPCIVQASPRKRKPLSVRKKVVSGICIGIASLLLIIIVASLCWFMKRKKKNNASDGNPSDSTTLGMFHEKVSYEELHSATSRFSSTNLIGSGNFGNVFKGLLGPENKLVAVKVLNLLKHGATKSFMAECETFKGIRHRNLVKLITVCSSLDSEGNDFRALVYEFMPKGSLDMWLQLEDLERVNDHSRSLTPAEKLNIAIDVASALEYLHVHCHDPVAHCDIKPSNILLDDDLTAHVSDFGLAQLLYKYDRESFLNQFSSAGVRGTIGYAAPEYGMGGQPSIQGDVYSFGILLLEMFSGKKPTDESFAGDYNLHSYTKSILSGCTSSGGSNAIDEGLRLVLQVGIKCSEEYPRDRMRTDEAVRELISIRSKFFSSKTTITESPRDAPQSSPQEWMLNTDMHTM"}, "source": "paper doi:10.1101/2020.10.25.354514", "molecules": {"B1": {"name": "SERK2 (receptor, UniProt Q9XIC7 30-628)", "chain": "NMEGDALHSLRANLVDPNNVLQSWDPTLVNPCTWFHVTCNNENSVIRVDLGNADLSGQLVPQLGQLKNLQYLELYSNNITGPVPSDLGNLTNLVSLDLYLNSFTGPIPDSLGKLFKLRFLRLNNNSLTGPIPMSLTNIMTLQVLDLSNNRLSGSVPDNGSFSLFTPISFANNLDLCGPVTSRPCPGSPPFSPPPPFIPPPIVPTPGGYSATGAIAGGVAAGAALLFAAPALAFAWWRRRKPQEFFFDVPAEEDPEVHLGQLKRFSLRELQVATDSFSNKNILGRGGFGKVYKGRLADGTLVAVKRLKEERTPGGELQFQTEVEMISMAVHRNLLRLRGFCMTPTERLLVYPYMANGSVASCLRERPPSQLPLAWSIRQQIALGSARGLSYLHDHCDPKIIHRDVKAANILLDEEFEAVVGDFGLARLMDYKDTHVTTAVRGTIGHIAPEYLSTGKSSEKTDVFGYGIMLLELITGQRAFDLARLANDDDVMLLDWVKGLLKEKKLEMLVDPDLQSNYTEAEVEQLIQVALLCTQSSPMERPKMSEVVRMLEGDGLAEKWDEWQKVEVLRQEVELSSHPTSDWILDSTDNLHAMELSGPR"}, "B2": {"name": "XLG2 (protein, UniProt C6KIE6 1-861)", "chain": "MAAVIRKLLPFPSPNPKRDNRESDDDDETSSGYRIEYSFASEYKGPLIANVPRALPVEVDQIPTALPVSFSSLRSGISYPVAPLVMTKDTKRPPDSGIEKKNGFVDSAAGSSVVLIGRDVVSGSSSSSSSKRLDVPEEVKSPADFRLSPSSPLSASAREEDHLDDDRVSDVGPRAVRFVEPFQSSECDESSYVSDGESIAATHRAERKGKRGSCYRCQLGNRFTEKEVCIVCDAKYCFNCVRRAMGAMPEGRKCQACIGYRIDESKRASLGKCSRMLKRHLTDSELRQVMNAEITCKANQLPSRLIIVNDKPLSEDELYTLQTCPNPPKKLKPGHYWYDKVAGYWGKIGEKPSQIISPNNSIGGYISEKVSNGDTEIYINGREITKPELTMLKWAGVQCEGKPHFWVDSDGSYREEGQKHPIGNIWSKKRAKIACAVFSLPVPPASSAVEPYDVPLYEQKMLNKLLLIGSEKGGATTIYKQARSLYNVSFSLEDRERIKFIIQTNLYTYLAMVLEAHERFEKEMSNDQSSGNVGDETSAKPGNSINPRLKHFSDWVLKEKEDGNLKIFPPSSRENAQTVADLWRVPAIQATYKRLRDTLPRNAVYFLERILEISRSEYDPSDMDILQAEGLSSMEGLSCVDFSFPSTSQEESLESDYQHDTDMKYQLIRLNPRSLGENWKLLEMFEDADLVIFCVSLTDYAENIEDGEGNIVNKMLATKQLFENMVTHPSLANKRFLLVLTKFDLLEEKIEEVPLRTCEWFEDFNPLISQNQTSRHNPPMAQRAFHYIGYKFKRLYDSILEPVNMRGRSFKPKLFVCQVSLESDTVDNALRYAREILKWHVEETSMFQEMSTTSIEASSSS"}, "B3": {"name": "XLG1 (protein, UniProt O80462 1-888)", "chain": "MPLKEDDCCLFAEEYDGPPLSYNIPCAVPINVEKIPVAAVVSPVCISDNMSFPVIQPILSVESKKFLIDSVSPTSVIANCGSNQLELVSDSITVSPTSVIEHTEEEEEEEGGDGEDCELSSSGELLLRSCSVKESLDLNESSSNPLVPDWESNESVLSMDYPSSRVTGDCVSETNGDGKKQPVVTFLGIASDDGFEEEESCSNLRRVRVVPVKKQPQTKGKKGSCYRCFKGSRFTEKEVCLVCDAKYCNSCVLRAMGSMPEGRKCVTCIGFPIDESKRGSLGKCSRMLKRLLNDLEVKQIMKTERFCEANQLPAEYVYVNGQPLYPEELVTLQTCSNPPKKLKPGDYWYDKVSGLWGKEGEKPYQIISPHLNVGGPISPEASNGNTQVFINGREITKVELRMLQLAGVQCAGNPHFWVNEDGSYQEEGQKNTKGYIWGKAGTKLLCAVLSLPVPSKSTANASGEQLYSANSRSILDHLEHRTLQKILLVGNSGSGTSTIFKQAKILYKDVPFLEDERENIKVIIQTNVYGYLGMLLEGRERFEEEALALRNTKQCVLENIPADEGDAKSNDKTVTMYSIGPRLKAFSDWLLKTMAAGNLGVIFPAASREYAPLVEELWRDAAIQATYKRRSELGLLPSVASYFLERAIDVLTPDYEPSDLDILYAEGVTSSSGLACLDFSFPQTASEENLDPSDHHDSLLRYQLIRVPSRGLGENCKWIDMFEDVGMVVFVVSMSDYDQVSEDGTNKMLLTKKLFESIITHPIFENMDFLLILNKYDLLEEKVERVPLARCEWFQDFNPVVSRHRGSNNGNPTLGQLAFHFMAVKFKRFYSSLTGKKLFVSSSKSLDPNSVDSSLKLAMEILKWSEERTNICMSEYSMYSTEPSSFSN"}, "B4": {"name": "BAK1 (receptor, UniProt Q94F62 26-615)", "chain": "NAEGDALSALKNSLADPNKVLQSWDATLVTPCTWFHVTCNSDNSVTRVDLGNANLSGQLVMQLGQLPNLQYLELYSNNITGTIPEQLGNLTELVSLDLYLNNLSGPIPSTLGRLKKLRFLRLNNNSLSGEIPRSLTAVLTLQVLDLSNNPLTGDIPVNGSFSLFTPISFANTKLTPLPASPPPPISPTPPSPAGSNRITGAIAGGVAAGAALLFAVPAIALAWWRRKKPQDHFFDVPAEEDPEVHLGQLKRFSLRELQVASDNFSNKNILGRGGFGKVYKGRLADGTLVAVKRLKEERTQGGELQFQTEVEMISMAVHRNLLRLRGFCMTPTERLLVYPYMANGSVASCLRERPESQPPLDWPKRQRIALGSARGLAYLHDHCDPKIIHRDVKAANILLDEEFEAVVGDFGLAKLMDYKDTHVTTAVRGTIGHIAPEYLSTGKSSEKTDVFGYGVMLLELITGQRAFDLARLANDDDVMLLDWVKGLLKEKKLEALVDVDLQGNYKDEEVEQLIQVALLCTQSSPMERPKMSEVVRMLEGDGLAERWEEWQKEEMFRQDFNYPTHHPAVSGWIIGDSTSQIENEYPSGPR"}}, "key": {"PUB4-FLAG (Arabidopsis) [1]": {"target": "T1, PUB4-FLAG (Arabidopsis) (UniProt O22193)", "T1 sequence": "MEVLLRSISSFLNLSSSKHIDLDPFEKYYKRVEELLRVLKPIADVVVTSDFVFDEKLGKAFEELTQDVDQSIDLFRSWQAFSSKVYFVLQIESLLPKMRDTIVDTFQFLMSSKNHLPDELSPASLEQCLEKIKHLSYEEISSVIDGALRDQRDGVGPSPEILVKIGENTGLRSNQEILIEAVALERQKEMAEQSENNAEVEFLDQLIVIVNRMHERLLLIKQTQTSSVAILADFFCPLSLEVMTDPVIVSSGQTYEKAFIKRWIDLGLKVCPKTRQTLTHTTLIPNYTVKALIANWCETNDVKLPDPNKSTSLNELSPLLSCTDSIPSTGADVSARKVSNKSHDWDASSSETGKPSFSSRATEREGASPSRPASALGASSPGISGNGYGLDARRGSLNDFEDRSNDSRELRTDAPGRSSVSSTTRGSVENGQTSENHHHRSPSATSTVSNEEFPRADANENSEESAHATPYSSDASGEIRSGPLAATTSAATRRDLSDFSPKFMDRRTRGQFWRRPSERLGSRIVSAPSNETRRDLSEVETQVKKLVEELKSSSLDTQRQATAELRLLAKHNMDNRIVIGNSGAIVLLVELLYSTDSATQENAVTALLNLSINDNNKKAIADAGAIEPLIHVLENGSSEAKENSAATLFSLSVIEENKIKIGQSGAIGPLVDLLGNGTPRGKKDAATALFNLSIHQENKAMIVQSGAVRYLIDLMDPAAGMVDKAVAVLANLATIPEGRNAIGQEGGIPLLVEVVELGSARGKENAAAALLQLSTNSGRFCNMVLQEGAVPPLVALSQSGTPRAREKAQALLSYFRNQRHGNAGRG", "assay": "affinity purification with mass spectrometry"}, "PUB4-FLAG (Arabidopsis) [2]": {"target": "T1, PUB4-FLAG (Arabidopsis)", "assay": "affinity purification with mass spectrometry", "remark": "listed apart in the source"}}, "note": "Where two headings read alike, the source gives them in different places. These are yes or no findings as the source states them, for the method shown. Binding seen in cells or lysates may run through a third protein. A yes stands for co-enrichment or nearness to the bait. Other partners may have been found. Where a sequence is shown, tags or fusion partners need not be part of it."}
{"molecule": "EFR (from UniProt C0LGT6 25-1031) (receptor)", "values": [{"measurement": "binding", "setting": "PUB4-FLAG (Arabidopsis) [1]", "value": "binds"}]}
{"molecule": "B1", "values": [{"measurement": "binding", "setting": "PUB4-FLAG (Arabidopsis) [2]", "value": "binds"}]}
{"molecule": "B2", "values": [{"measurement": "binding", "setting": "PUB4-FLAG (Arabidopsis) [2]", "value": "binds"}]}
{"molecule": "B3", "values": [{"measurement": "binding", "setting": "PUB4-FLAG (Arabidopsis) [2]", "value": "binds"}]}
{"molecule": "B4", "values": [{"measurement": "binding", "setting": "PUB4-FLAG (Arabidopsis) [2]", "value": "binds"}]}
